Source: patent US20210275683A1
Results are given in words; binding and its absence hold for the method and conditions named. Some results given as binding are weak or reduced against the parent protein; the word gives no strength.

Protein sequences, listed by entry. Tags and fused reporters are not part of them. Residues count along the entry.
UniProt Q96NY8, residues 32-510: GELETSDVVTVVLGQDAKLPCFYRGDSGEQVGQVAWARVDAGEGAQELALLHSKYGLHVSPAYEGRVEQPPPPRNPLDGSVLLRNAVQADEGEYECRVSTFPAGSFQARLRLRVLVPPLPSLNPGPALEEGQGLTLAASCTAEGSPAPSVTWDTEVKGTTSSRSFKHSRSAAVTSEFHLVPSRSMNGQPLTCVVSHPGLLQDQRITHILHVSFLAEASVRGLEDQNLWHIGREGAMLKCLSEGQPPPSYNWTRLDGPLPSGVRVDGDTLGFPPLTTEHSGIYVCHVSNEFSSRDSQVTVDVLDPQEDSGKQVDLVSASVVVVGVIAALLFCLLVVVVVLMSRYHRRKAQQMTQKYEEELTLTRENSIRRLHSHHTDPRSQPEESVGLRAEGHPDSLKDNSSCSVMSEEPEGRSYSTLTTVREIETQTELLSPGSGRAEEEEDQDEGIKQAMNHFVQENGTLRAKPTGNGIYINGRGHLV

Experiments:
[1] = target: Nectin-4 on T24 tumor cells (stable clone made by Nectin4-lentiviral transduction) (UniProt Q96NY8); test: flow cytometry blocking assay on Nectin-4 expressing T24 cells; blocked ligand rhTIGIT-Fc at 40 nM, detected with PE anti-human Fc
[2] = target: cynomolgus Nectin-4 on transfected HEK-293 cells (cynomolgus); test: flow cytometry on HEK-293 cells transfected with cynomolgus Nectin-4, anti-huIgG1-PE
[3] = target: cynomolgus Nectin-4 on transfected HEK-293 cells (cynomolgus); test: flow cytometry on transfected HEK-293 cells (FIG. 1B)

B1: hzD6.2C-mIgG2a (anti-Nectin-4 antibody with the binding domain of hzD6.2C on mouse IgG2a) (antibody, V domains shown)
VH: EVQLVESGGGLVQPGGSLRLSCAASGFTFSNYDMSWVRQAPGKGLEWVATISSGGSYTYYVDSVKGRFTISRDNAKNSLYLQMNSLRAEDTAVYYCARQELGSYYAMDYWGQGTTVTVSS
VL: DIVMTQTPLSLPVTPGEPASISCRSSQSIVHSNANTYLEWYLQKPGQSPQLLIYKVSNRFSGVPDRFSGSGSGTDFTLKISRVEAEDVGVYYCFQGSHVPYTFGGGTKVEIK
In the case of B1, the binding [1] is reported as “binds”.

B2: hzD6.2C-Compound 2.14 (anti-Nectin-4-TLR8 agonist immunoconjugate) (antibody, V domains shown)
VH: EVQLVESGGGLVQPGGSLRLSCAASGFTFSNYDMSWVRQAPGKGLEWVATISSGGSYTYYVDSVKGRFTISRDNAKNSLYLQMNSLRAEDTAVYYCARQELGSYYAMDYWGQGTTVTVSS
VL: DIVMTQTPLSLPVTPGEPASISCRSSQSIVHSNANTYLEWYLQKPGQSPQLLIYKVSNRFSGVPDRFSGSGSGTDFTLKISRVEAEDVGVYYCFQGSHVPYTFGGGTKVEIKR
For B2, the binding [2] was “binds” and the binding [3] was “binds”.

B3: hzD6.1C-Compound 2.14 (anti-Nectin-4-TLR8 agonist immunoconjugate) (antibody, V domains shown)
VH: EVQLVESGGGLVQPGGSLRLSCAASGFTFSNYDMSWVRQAPGKGLEWVATISSGGSYTYYVDSVKGRFTISRDNAKNSLYLQMNSLRAEDTAVYYCARQELGSYYAMDYWGQGTTVTVSS
VL: DVVMTQTPLSLPVTPGEPASISCRSSQSIVHSNGNTYLEWYLQKPGQSPQLLIYKVSNRFSGVPDRFSGSGSGTDFTLKISRVEAEDVGVYYCFQGSHVPYTFGGGTKVEIKR
With B3 the binding [2] was “binds” and the binding [3] was “binds”.

B4: D6C IgG1-Compound 2.14 (parental antibody TLR8 agonist conjugate) (antibody, V domains shown)
VH: EVMLVESGGALVKPGGSLKLSCVASGFTFSNYDMSWVRQTPEKRLEWVATISSGGSYTYYVDSVKGRFTISRDNARNTLHLQMSSLRSKDTAMYYCARQELGSYYAMDYWGQGTSVTVSS
VL: DVVMTQTPLSLPVSLGDQASISCRSSQSIVHSNGNTYLEWYLQKPGQSPKLLIYKVSNRFSGVPDRFSGSGSGTDFTLKISRVEAEDLGVYYCFQGSHVPYTFGGGTKLEIK
B4 was tested, and the binding [2] was “binds” and the binding [3] was “binds”.

B5: humanized D6C mAb with hzD6.2C VL (G34A), human IgG1 / human kappa (antibody, V domains shown)
VH: EVQLVESGGGLVQPGGSLRLSCAASGFTFSNYDMSWVRQAPGKGLEWVATISSGGSYTYYVDSVKGRFTISRDNAKNSLYLQMNSLRAEDTAVYYCARQELGSYYAMDYWGQGTTVTVSS
VL: DIVMTQTPLSLPVTPGEPASISCRSSQSIVHSNANTYLEWYLQKPGQSPQLLIYKVSNRFSGVPDRFSGSGSGTDFTLKISRVEAEDVGVYYCFQGSHVPYTFGGGTKVEIKR
In the case of B5, the binding [2] is reported as “binds” and the binding [3] is reported as “binds”.

B6: humanized D6C mAb with hzD6.1C VL (I2V), human IgG1 / human kappa (antibody, V domains shown)
VH: EVQLVESGGGLVQPGGSLRLSCAASGFTFSNYDMSWVRQAPGKGLEWVATISSGGSYTYYVDSVKGRFTISRDNAKNSLYLQMNSLRAEDTAVYYCARQELGSYYAMDYWGQGTTVTVSS
VL: DVVMTQTPLSLPVTPGEPASISCRSSQSIVHSNGNTYLEWYLQKPGQSPQLLIYKVSNRFSGVPDRFSGSGSGTDFTLKISRVEAEDVGVYYCFQGSHVPYTFGGGTKVEIKR
For B6, the binding [2] was “binds” and the binding [3] was “binds”.

B7: D6C parental chimeric anti-Nectin-4 antibody (D6C IgG1) (antibody, V domains shown)
VH: EVMLVESGGALVKPGGSLKLSCVASGFTFSNYDMSWVRQTPEKRLEWVATISSGGSYTYYVDSVKGRFTISRDNARNTLHLQMSSLRSKDTAMYYCARQELGSYYAMDYWGQGTSVTVSS
VL: DVVMTQTPLSLPVSLGDQASISCRSSQSIVHSNGNTYLEWYLQKPGQSPKLLIYKVSNRFSGVPDRFSGSGSGTDFTLKISRVEAEDLGVYYCFQGSHVPYTFGGGTKLEIK
With B7 the binding [2] was “binds” and the binding [3] was “binds”.
